# Test results taken from PubChem BioAssay AID445 (National Center for Advancing Translational Sciences (NCATS), 2006).
# The list shows a part of the results. The main result of the screen is listed elsewhere. These columns were measured beside it and carry no call. Most of these compounds were active or inconclusive in the main read-out, so they are no random draw. The note in brackets gives the kind of curve behind each potency; many fits are weak.
# Assay: IkB Signaling
# Conditions: ABC-DLBCL IkBa-CBG/CBR dual luciferase ratio (green luciferase fused to IkBa over red control in OCI-Ly3 lymphoma cells), 4 h; measured here: control luc red channel unless noted
# How it was run: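 Luminescence ratio of IκBα-fused green versus native red beetle luciferase in OCI-Ly3 cells, 4 h post-doxycycline with compound; red signal alone, scaled from basal (0%) to zero light (-100%), flagged nonspecific or cytotoxic effects.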
row,Structure (SMILES),AC50
1,Cc1cc(C(F)F)n2nc(C(=O)Nc3cc(Cl)ccc3C)nc2n1,"10 µM [rising, partial curve]"
2,CC1CCc2noc(NC(=O)c3ccccc3[N+](=O)[O-])c2C1 (stereo not drawn),"25.1 µM [falling, single point]"
3,Cc1cc(=O)n2[nH]c(-c3ccc(F)cc3)nc2n1,"25.1 µM [falling, partial curve]"
4,CCc1nnc(NC(=O)CSc2nnc(CNc3ccc(Cl)cc3)o2)s1,"39.8 µM [falling, single point]"
5,Cn1c(SCC(=O)Nc2ccc(F)cc2)nnc1-c1cccnc1,"5.01 µM [falling, partial curve]"
6,COc1ccc(C(=O)Oc2c(Sc3ccc(Cl)cc3)c(C)nn2C(C)(C)C)cc1OC,"1.58 µM [falling, partial curve]"
7,COC(=O)c1cc(NC(=O)C2COc3ccccc3O2)ccc1Cl (stereo not drawn),"20 µM [falling, single point]"
8,COc1ccc(NC(=O)CCCn2c(=O)c3cccn3c3ccccc32)c(OC)c1,"0.631 µM [rising, full curve]"
9,O=C(Cn1c(=O)c2ccccc2n(CC(=O)Nc2ccc(Cl)cc2)c1=O)NCCc1ccccc1,"6.31 µM [falling, partial curve]"
10,CCOC(=O)c1c(C)[nH]c(CCC(=O)NCCCN2CCN(c3cc(Cl)ccc3C)CC2)c1C,"31.6 µM [falling, single point]"
11,Cc1c(CCNC(=O)Cc2ccc(F)cc2)sc2nc(-c3ccc(F)cc3)nn12,"10 µM [falling, single point]"
12,CCOc1ccc(C(=O)Nc2cccc(OCc3cc(=O)n4ccccc4n3)c2)cc1,"0.126 µM [falling, full curve]"
13,COC(=O)c1cc(COC(=O)c2ccc(OC)c(S(=O)(=O)N3CCCC3)c2)oc1C,"39.8 µM [falling, single point]"
14,CCOc1cccc(CNCCNC(=O)c2nonc2N)c1,"3.16 µM [rising, partial curve]"
15,Cc1ccc(Cl)cc1-n1c(=O)c2sc3ccccc3c2n(CC(=O)NC2CCCCC2)c1=O,"12.6 µM [falling, single point]"
16,Cc1cccc(C)c1NC(=O)c1nc(S(C)(=O)=O)ncc1N(Cc1ccc(F)cc1)Cc1ccco1,"12.6 µM [falling, partial curve]"
17,COc1cccc(CNC(=O)CN2C(=O)CSc3c2c(C)nn3-c2ccccc2)c1OC,"25.1 µM [falling, single point]"
18,NC1=NC(c2ccccc2Cl)n2c(nc3ccccc32)N1 (stereo not drawn),"1.58 µM [falling, full curve]"
19,Cc1cc(-c2ccc(C)c(S(=O)(=O)Nc3ccccc3C(F)(F)F)c2)on1,"31.6 µM [falling, single point]"
20,COc1ccc(C(=O)N(Cc2ccc(N(C)C)cc2)Cc2ccco2)cc1Cl,"31.6 µM [falling, partial curve]"
21,Cc1ccc(C)n1-c1c(C(=O)NCC(C)c2ccccc2)sc2ncccc12 (stereo not drawn),"12.6 µM [falling, partial curve]"

# Shown tab-delimited: 3 of the compounds above.
row	Structure (SMILES)	AC50
16	Cc1cccc(C)c1NC(=O)c1nc(S(C)(=O)=O)ncc1N(Cc1ccc(F)cc1)Cc1ccco1	12.6 µM [falling, partial curve]
17	COc1cccc(CNC(=O)CN2C(=O)CSc3c2c(C)nn3-c2ccccc2)c1OC	25.1 µM [falling, single point]
18	NC1=NC(c2ccccc2Cl)n2c(nc3ccccc32)N1 (stereo not drawn)	1.58 µM [falling, full curve]

# (cont.)

row,Structure (SMILES),AC50
1,Cc1ccccc1-n1nnnc1SCc1ncc(-c2ccccc2)o1,"31.6 µM [falling, partial curve]"
2,CC(C(=O)NCc1ccccc1Cl)n1ccc2cc(S(=O)(=O)N3CCCCC3)ccc21 (stereo not drawn),"10 µM [falling, partial curve]"
3,Cc1ccc(-n2ncc(C(=O)NCCCN3CCCCC3)c2C2CCN(C(=O)OC(C)(C)C)CC2)c(C)c1,"2 µM [falling, partial curve, poor fit]"
4,CCc1cccc(C)c1NC(=O)CCCn1c(=O)c2cccn2c2cccnc21,"3.98 µM [rising, partial curve, poor fit]"
5,Cc1[nH]nc2ncc(C(=O)c3ccccc3O)cc12,"15.8 µM [falling, partial curve]"
6,CCC1CCCCN1C(=O)COC(=O)c1cc2ccccc2cc1O (stereo not drawn),"25.1 µM [falling, partial curve]"
7,c1nc(N2CCC3(CC2)OCCO3)c2c3c(sc2n1)CCCC3,"20 µM [falling, partial curve]"
8,Cc1cccc(Cn2ccn(Cc3ccc(Cl)cc3)c(=O)c2=O)c1,"31.6 µM [falling, single point]"
9,O=C(CSc1nc(-c2cccc(Cl)c2)nc2cc(=O)[nH]n12)Nc1ccccc1,"25.1 µM [falling, partial curve]"
10,CCN(CC)C(=O)c1sc(NC(=O)c2nc3ncccn3n2)c(C(=O)OC)c1C,"3.16 µM [rising, partial curve] [measured here: IkB-luc green channel]"
11,Cc1occc1C(=O)N1CCN(C(c2ccccc2)c2ccccc2)CC1,"20 µM [falling, partial curve]"
12,Cc1oc2cc3c(C(=O)N4CCCCC4)c(C)oc3cc2c1C(=O)N1CCCCC1,"25.1 µM [falling, partial curve]"
13,Cc1ccc(C2c3c(-c4cc(C)ccc4O)n[nH]c3C(=O)N2Cc2ccco2)cc1 (stereo not drawn),"39.8 µM [falling, single point]"
14,O=C(Nc1cccc2cccnc12)c1ccccc1[N+](=O)[O-],"0.398 µM [rising, full curve, poor fit]"
15,COc1cccc(Cn2c(=O)n(CC3CCC(C(=O)N4CCCCC4)CC3)c(=O)c3sccc32)c1 (stereo not drawn),"39.8 µM [falling, single point]"
16,COc1ccccc1N1CCN(C(=O)C2CCN(S(=O)(=O)c3c(C)noc3/C=C/c3ccc(C)cc3)CC2)CC1,"25.1 µM [falling, single point]"
17,Cc1ccc(C)n1NC(=O)c1cccs1,"1.58 µM [falling, partial curve]"
18,Cc1cc(C)cc(-n2c(SCC(=O)NCc3ccco3)nc3c([nH]c4ccccc43)c2=O)c1,"1 µM [rising, partial curve]"
19,COc1cccc(NC(=O)CSc2nnc(COc3ccc(Cl)cc3)o2)c1,"12.6 µM [falling, partial curve]"
20,CCOC(=O)c1cc(-c2ccc(C)cc2)n(CCC(=O)Nc2nc3c(C)cccc3s2)c1C,"3.16 µM [falling, partial curve]"
21,COc1ccc(-c2ccc(-c3noc(-c4ccccc4)n3)c(OC)n2)cc1,"2.51 µM [falling, full curve, poor fit]"

row,Structure (SMILES),AC50
1,Cc1ccc2c(c1)c(=O)c1ccccc1n2CCCC(=O)Nc1ccc(C)c(F)c1,"3.16 µM [falling, full curve]"
2,CCCCCC(=O)N1c2ccccc2C(C)(c2ccccc2)CC1(C)C (stereo not drawn),"12.6 µM [falling, partial curve, poor fit]"
3,COc1ccc(C(=O)Oc2ccc3c(c2)OCO3)cc1OC,"1.26 µM [rising, partial curve]"
4,COc1ccc(Cn2c(C(=O)O)c(CNCC(C)c3ccccc3)c3ccc(OC)cc32)cc1 (stereo not drawn),"15.8 µM [falling, single point]"
5,Cc1ccc(C)c(N2CCN(C(=O)Nc3cn(CC(C)C)c(=O)c4ccccc34)CC2)c1,"25.1 µM [falling, single point]"
6,O=c1c2ccccc2nc(SCc2cccc(F)c2)n1Cc1ccco1,"10 µM [falling, partial curve]"
7,Cc1cccc(N2CCN(S(=O)(=O)c3ccc4c(c3)C(C(C)C)C(=O)N4)CC2)c1C (stereo not drawn),"12.6 µM [falling, partial curve]"
8,Cc1ccc(-c2nnc(SCC(=O)c3ccc(Cl)cc3)n2-c2ccccc2)cc1,"0.794 µM [rising, full curve, poor fit]"
9,COc1cccc(CN2CCCN(CC(=O)Nc3ccc4c(c3)OCCO4)S2(=O)=O)c1,"15.8 µM [falling, partial curve]"
10,Cc1nc2nc(NC(=O)c3ccc(C(C)(C)C)cc3)[nH]n2c(=O)c1Cl,"12.6 µM [falling, partial curve]"
11,Cc1oc(-c2ccccc2F)nc1CSCC(=O)N1CCN(c2ccccc2)CC1,"20 µM [falling, partial curve]"
12,c1ccc(N(c2ccccc2)c2nc(-n3ccnc3)nc(-n3ccnc3)n2)cc1,"10 µM [falling, partial curve]"
13,O=C(Nc1cccc(O)c1)c1cc2nc(-c3ccc(Br)cc3)cc(C(F)(F)F)n2n1,"0.631 µM [falling, full curve]"
14,COC(=O)CN(n1cnnc1)S(=O)(=O)c1ccccc1,"25.1 µM [rising, partial curve] [measured here: IkB-luc green channel]"
15,COc1ccc(N2CCN(C(=O)CSc3c4c(nc5ccc(Cl)cc35)CCCC4)CC2)cc1,"10 µM [falling, partial curve]"
16,COc1ccccc1-c1ccc(C(=O)O)o1,"5.01 µM [falling, full curve, poor fit]"
17,Cc1ccccc1CNc1nc(N(C)C)nc2c1cnn2C,"20 µM [falling, single point]"
18,Cc1ccc(NC(=O)C2CCN(S(=O)(=O)c3ccc4[nH]c(=O)ccc4c3)CC2)cc1C,"31.6 µM [falling, single point]"
19,CCOc1ccc(CCNC(=O)Cn2c(-c3cccs3)cc3cc(F)ccc32)cc1OCC,"10 µM [falling, partial curve]"
20,CCCc1cc(N2CCN(c3ccccc3)CC2)n2cnnc2n1,"31.6 µM [falling, single point]"
21,CCc1ccc(CN(Cc2ccco2)c2cnc(S(C)(=O)=O)nc2C(=O)Nc2c(C)cccc2C)cc1,"12.6 µM [falling, single point]"
